For some of these results: For at least one compound, name, drawing or mass did not settle the structure. Some results were stated once for a whole list of compounds, not compound by compound.
Key:
Format in all cases: cell-based
[1] = test system: MDA-MB-231 cells; experiment: MTT viability assay, MDA-MB-231 cells
Protocol: (§1) The anticancer activities of the exemplary compounds listed in Example 1 were tested against human cervix Hela cells, mammary breast cancer MDA-MB-231 cells, human hepatocellular HepG2 cells, human colorectal HCT116 cells, mammary ductal T47D cells, non-cancerous NIH3T3 cells, dog's kidney MDCK cells, and mouse brain bEnd.3 cells, respectively.

[2] = test system: HEYA8 CSCs; experiment: CellTiter-Glo viability, HeyA8 cancer stem cells (spheres); settings: concentration of 5 μM
[3] = test system: NIH3T3 cells; experiment: MTT viability assay, non-cancerous NIH3T3 cells
Protocol: as §1

[4] = test system: HeyA8 cells; experiment: CellTiter-Glo viability, adherent HeyA8 ovarian cancer cells; settings: 5 μM

Row | Compound | fold more cytotoxic to MDA-MB-231 cells than non-cancerous NIH3T3 and MDCK [1] | CSC spheroids eradicated [2] | selectivity between non-cancerous cells and cancer cells [3] | elimination of adherent HEYA8 cells [4]
1 | CC(C)(C)C1CCC2(CC1)OOC1(CCC(OC(=O)NCCC[P+](c3ccccc3)(c3ccccc3)c3ccccc3)CC1)OO2.[Br-] (stereo not shown) [Compound 37b, (3-((((12-(tert-butyl)-7,8,15,16-tetraoxadispiro[5.2.59.26]hexadecan-3-yl)oxy)carbonyl)amino)propyl)triphenylphosphonium bromide] | at least 10 fold | over 90% |  | 
2 | CC(C)(C)C1CCC2(CC1)OOC1(CCC(OC(=O)N3CCNCC3)CC1)OO2 (stereo not shown) [Compound 37f, 12-(tert-butyl)-7,8,15,16-tetraoxadispiro[5.2.59.26]hexadecan-3-yl piperazine-1-carboxylate] | at least 10 fold |  |  | 
3 | CC(C)(C)C1CCC2(CC1)OOC1(CCC(OC(=O)NCCC[N+](C)(Cc3ccccc3)Cc3ccccc3)CC1)OO2.[I-] (stereo not shown) [Compound 48, N,N-dibenzyl-3-((((12-(tert-butyl)-7,8,15,16-tetraoxadispiro[5.2.59.26]hexadecan-3-yl)oxy)carbonyl)amino)-N-methylpropan-1-aminium iodide] | at least 10 fold | over 90% |  | 
4 | CCCC[N+](C)(CCCC)CCCNC(=O)OC1CCC2(CC1)OOC1(CCC(C(C)(C)C)CC1)OO2.[I-] (stereo not shown) [Compound 53, N-butyl-N-(3-((((12-(tert-butyl)-7,8,15,16-tetraoxadispiro[5.2.59.26]hexadecan-3-yl)oxy)carbonyl)amino)propyl)-N-methylbutan-1-aminium iodide] | at least 10 fold |  |  | 
5 | CCCC[P+](CCCC)(CCCC)CCCNC(=O)OC1CCC2(CC1)OOC1(CCC(C(C)(C)C)CC1)OO2.[Br-] (stereo not shown) [Compound 56, tributyl(3-((((12-(tert-butyl)-7,8,15,16-tetraoxadispiro[5.2.59.26]hexadecan-3-yl)oxy)carbonyl)amino)propyl)phosphonium bromide] | at least 10 fold |  |  | 
6 | C#CCCN(CCC[N+](C)(Cc1ccccc1)Cc1ccccc1)C(=O)OC1CCC2(CC1)OOC1(CCC(C(C)(C)C)CC1)OO2.[I-] (stereo not shown) [Compound alk-R-48, N,N-dibenzyl-3-(but-3-yn-1-yl(((12-(tert-butyl)-7,8,15,16-tetraoxadispiro[5.2.59.26]hexadecan-3-yl)oxy)carbonyl)amino)-N-methylpropan-1-aminium iodide] | at least 10 fold |  |  | 
7 | CCOc1ccccc1-n1c(C(C)N2CCN(C(=O)COc3ccc(Cl)cc3)CC2)nc2ccccc2c1=O (stereo not shown) [Erastin, reference compound] |  |  | more cytotoxic to non-cancerous cells than cancer cells | eliminate the majority of adherent HEYA8 cells

Source: patent publication US20240101584A1, “TARGETED DELIVERY OF 1,2,4,5 TETRAOXANE COMPOUNDS AND THEIR USES” (Westlake University, priority 2021, published 2024)
